Sequences of proteins named here, by UniProt entry; tags and fusion partners are left off. A change or cut given only in a name is not applied to a line headed by its entry.
UniProt A5YKK6: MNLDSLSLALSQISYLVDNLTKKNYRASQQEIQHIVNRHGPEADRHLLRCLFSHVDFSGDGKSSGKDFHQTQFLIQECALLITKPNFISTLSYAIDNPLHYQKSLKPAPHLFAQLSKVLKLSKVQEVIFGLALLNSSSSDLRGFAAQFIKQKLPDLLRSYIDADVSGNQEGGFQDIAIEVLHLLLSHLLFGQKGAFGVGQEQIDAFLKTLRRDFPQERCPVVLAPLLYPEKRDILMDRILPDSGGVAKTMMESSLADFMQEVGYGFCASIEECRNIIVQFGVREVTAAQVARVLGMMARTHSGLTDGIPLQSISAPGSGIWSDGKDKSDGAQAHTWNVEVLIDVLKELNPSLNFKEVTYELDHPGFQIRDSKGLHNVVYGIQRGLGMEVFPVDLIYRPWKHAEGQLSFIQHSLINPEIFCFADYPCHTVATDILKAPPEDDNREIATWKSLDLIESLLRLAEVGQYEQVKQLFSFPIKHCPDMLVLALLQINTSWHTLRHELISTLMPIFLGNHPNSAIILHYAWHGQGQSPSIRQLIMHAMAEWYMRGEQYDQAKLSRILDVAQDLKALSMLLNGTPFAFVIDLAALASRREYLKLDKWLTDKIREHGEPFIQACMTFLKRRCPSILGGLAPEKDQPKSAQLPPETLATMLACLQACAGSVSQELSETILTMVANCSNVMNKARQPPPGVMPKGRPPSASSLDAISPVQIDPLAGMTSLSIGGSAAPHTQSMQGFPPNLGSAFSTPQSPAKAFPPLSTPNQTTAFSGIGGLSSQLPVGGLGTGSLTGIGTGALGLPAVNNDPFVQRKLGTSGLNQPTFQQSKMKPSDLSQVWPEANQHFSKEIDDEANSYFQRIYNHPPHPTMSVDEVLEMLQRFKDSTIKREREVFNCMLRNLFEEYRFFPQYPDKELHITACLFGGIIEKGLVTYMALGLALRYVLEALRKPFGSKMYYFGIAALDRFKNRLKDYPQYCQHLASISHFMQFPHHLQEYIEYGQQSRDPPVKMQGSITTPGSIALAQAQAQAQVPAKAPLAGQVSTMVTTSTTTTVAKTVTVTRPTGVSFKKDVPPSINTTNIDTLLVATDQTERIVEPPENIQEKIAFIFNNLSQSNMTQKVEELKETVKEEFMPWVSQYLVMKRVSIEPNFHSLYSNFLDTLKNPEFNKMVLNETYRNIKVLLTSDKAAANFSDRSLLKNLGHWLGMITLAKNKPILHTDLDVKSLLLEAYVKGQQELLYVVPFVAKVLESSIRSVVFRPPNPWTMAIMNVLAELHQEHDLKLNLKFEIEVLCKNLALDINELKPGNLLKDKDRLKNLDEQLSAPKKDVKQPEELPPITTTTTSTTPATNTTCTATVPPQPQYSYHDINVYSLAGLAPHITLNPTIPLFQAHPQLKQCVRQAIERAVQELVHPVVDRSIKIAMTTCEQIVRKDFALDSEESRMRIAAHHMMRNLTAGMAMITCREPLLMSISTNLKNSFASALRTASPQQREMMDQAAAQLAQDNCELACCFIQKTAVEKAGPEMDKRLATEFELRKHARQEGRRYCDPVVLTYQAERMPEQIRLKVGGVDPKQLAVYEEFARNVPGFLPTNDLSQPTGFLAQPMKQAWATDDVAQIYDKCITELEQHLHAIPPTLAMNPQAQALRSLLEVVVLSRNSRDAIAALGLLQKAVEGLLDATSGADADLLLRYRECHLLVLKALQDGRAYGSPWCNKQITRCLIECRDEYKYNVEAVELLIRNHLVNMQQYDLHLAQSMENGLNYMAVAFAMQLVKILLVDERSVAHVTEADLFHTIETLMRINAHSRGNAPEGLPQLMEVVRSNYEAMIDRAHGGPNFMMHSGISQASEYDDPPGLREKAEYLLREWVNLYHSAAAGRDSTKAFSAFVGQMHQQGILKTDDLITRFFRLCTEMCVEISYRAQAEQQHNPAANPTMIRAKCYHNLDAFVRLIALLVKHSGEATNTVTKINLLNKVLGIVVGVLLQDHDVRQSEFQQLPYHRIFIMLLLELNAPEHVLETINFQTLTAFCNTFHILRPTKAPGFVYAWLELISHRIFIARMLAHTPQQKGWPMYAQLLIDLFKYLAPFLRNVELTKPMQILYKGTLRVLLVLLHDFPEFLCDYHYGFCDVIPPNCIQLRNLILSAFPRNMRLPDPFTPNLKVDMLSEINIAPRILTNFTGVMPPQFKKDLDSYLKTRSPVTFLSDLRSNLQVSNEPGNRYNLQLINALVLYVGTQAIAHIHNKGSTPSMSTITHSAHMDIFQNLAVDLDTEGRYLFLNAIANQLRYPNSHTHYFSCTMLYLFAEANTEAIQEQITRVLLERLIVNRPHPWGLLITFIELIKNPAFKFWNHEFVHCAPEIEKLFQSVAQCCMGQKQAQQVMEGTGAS

According to publication PMC8406275:

What was measured:
Test in all cases: co-IP; Halo-V5-tagged WT or truncated YTHDF2 cotransfected with HA-tagged CNOT1 SH domain into 293T cells; lysed 48 h posttransfection in RIPA lysis buffer (50 mM Tris-HCl, 150 mM NaCl, 1% NP-40, 1% deoxycholate, 0.1% SDS, 1 mM EDTA); IP with anti-V5 antibody-conjugated magnetic beads; Western blot
[1] = target: T1, Halo-V5-tagged YTHDF2 fragment F2 (aa 1 to 367) (human) (UniProt Q9Y5A9)
T1 sequence: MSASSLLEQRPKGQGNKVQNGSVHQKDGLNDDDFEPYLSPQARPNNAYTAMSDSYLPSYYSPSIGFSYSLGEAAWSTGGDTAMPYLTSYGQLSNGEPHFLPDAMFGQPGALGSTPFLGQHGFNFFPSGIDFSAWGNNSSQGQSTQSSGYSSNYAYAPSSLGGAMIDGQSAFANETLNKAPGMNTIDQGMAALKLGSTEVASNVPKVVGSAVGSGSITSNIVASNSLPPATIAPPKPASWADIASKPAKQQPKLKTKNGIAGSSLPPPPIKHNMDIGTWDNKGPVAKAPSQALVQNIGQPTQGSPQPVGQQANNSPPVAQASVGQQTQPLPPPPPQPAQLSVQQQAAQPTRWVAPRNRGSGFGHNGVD

[2] = target: T2, Halo-V5-tagged YTHDF2 fragment F3 (aa 167 to 367) (human) (UniProt Q9Y5A9)
T2 sequence: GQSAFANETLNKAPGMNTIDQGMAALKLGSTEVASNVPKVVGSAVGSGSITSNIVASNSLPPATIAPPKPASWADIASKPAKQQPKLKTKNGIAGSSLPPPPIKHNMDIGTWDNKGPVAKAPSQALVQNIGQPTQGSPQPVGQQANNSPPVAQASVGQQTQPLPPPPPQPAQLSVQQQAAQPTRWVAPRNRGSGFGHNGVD

[3] = target: T3, Halo-V5-tagged YTHDF2 fragment F1 (aa 1 to 166) (human) (UniProt Q9Y5A9)
T3 sequence: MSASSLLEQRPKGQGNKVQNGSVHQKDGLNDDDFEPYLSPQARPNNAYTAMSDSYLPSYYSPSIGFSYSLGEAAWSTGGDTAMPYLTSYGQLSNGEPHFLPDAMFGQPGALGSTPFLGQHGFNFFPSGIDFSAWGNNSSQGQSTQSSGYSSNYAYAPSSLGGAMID

[4] = target: T4, Halo-V5-tagged YTHDF2 fragment F4 (aa 167 to 579) (human) (UniProt Q9Y5A9)
T4 sequence: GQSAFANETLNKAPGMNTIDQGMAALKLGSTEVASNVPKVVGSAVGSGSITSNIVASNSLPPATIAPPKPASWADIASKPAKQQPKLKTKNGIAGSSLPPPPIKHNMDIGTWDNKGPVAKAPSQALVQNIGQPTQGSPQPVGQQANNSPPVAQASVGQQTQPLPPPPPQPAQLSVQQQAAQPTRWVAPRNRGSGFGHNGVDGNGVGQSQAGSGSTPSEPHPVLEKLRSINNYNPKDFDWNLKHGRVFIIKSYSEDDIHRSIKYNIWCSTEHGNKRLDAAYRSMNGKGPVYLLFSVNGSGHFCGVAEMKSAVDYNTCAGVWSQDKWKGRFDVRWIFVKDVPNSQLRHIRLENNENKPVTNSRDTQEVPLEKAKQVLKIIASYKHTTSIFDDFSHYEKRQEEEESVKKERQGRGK

[5] = target: T5, Halo-V5-tagged YTHDF2 fragment F5 (aa 368 to 579) (human) (UniProt Q9Y5A9)
T5 sequence: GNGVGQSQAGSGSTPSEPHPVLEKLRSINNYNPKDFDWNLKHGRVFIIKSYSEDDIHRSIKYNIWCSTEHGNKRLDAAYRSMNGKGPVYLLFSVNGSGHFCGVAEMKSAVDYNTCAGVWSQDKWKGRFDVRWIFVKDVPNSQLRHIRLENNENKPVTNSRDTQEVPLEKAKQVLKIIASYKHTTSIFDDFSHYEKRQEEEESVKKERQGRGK

[6] = target: Halo-V5-tagged WT YTHDF2 (human) (UniProt Q9Y5A9)

HA-tagged CNOT1 SH domain (from UniProt A5YKK6) (domain or fragment)
binding [1]: binds
binding [2]: no binding
binding [3]: no binding
binding [4]: binds
binding [5]: binds
binding [6]: binds

These are yes or no findings as the source states them, for the method shown. Binding seen in cells or lysates may run through a third protein. For part of these data: A result given as binding can be weak or reduced; the word gives no strength. For part of these data: Tags and fused reporters may be left off the sequences shown.
